PubChem BioAssay AID1347423 (Functional Genomics Laboratory (NCATS/FGL), 2020)
Among all 52,000 sequences or so, about 210 (0.4%) were called active.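 How the source made its calls: active means gene whose silencing raises cell survival under the drug, median off-target-corrected z-score across its silencing RNAs 2 or more; inactive means the rest.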 Some of the results follow.

test: Resistance to Poly (ADP-Ribose) Polymerase inhibitor: Gene Identification via Genome-wide siRNA Screen; settings: mouse BRCA2 R2336H ES cells, olaparib, CellTiter-Glo viability; active compounds read high
Method in brief: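 Mouse BRCA2 R2336H ES cells were reverse-transfected with siRNA (20 nM final), treated at 48 h with 500 nM olaparib, and read by CellTiter-Glo after 72 h. Scores: MAD-based z per siRNA, median per gene, seed off-target correction.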

Row | Sequence | z-score
1 | GCCACUCCUGGACACAAAATT against Ccnt2 | inactive: -0.672
2 | GGAAAAAUCACCAGUAAAATT against 5730509K17Rik | inactive: 0.225
3 | CCAAACACUAUGUGACAAGTT against Trim8 | inactive: -0.17
4 | UGUUGGAUACUAGUCACAATT against Olfr1066 | inactive: -0.0355
5 | GGACUAUGCAGAUGCCUACTT against Cacnb3 | inactive: 0.398
6 | GGGAUAUGGUGUGAUCUUUTT against Cyp2b19 | inactive: -0.905
7 | GGGCAGAAUGCCAGUGUACTT against Kif22 | inactive: -1.61
8 | GGCUACCCAUGCUACCUACTT against 4930517K23Rik | inactive: 0.572
9 | GGGUCUUUGUACAGAUUGCTT against Olfr275 | inactive: 0.213
10 | CGGAGCUCUAAAUGAACAUTT against Snai3 | inactive: 0.304
11 | CCUCAACAUAUUCAAACAUTT against Tlr7 | inactive: 0.502
12 | GGACAUAAAAUAUCUACGGTT against Trim17 | inactive: -0.2
13 | GGUGUUCAUUGAAGUCCAGTT against D11Ertd603e | inactive: -0.639
14 | GAGUUACAUGCGAAUAUGATT against Ndufc1 | inactive: 2.19
15 | GGAAGAUGUUUAUUCAAGUTT against D230019K24Rik | inactive: 1.6
16 | GCCAGAGGAUAACCUAUCGTT against Dsg4 | inactive: -0.393
17 | CCGAUUUAACUGAAUUUGCTT against Acaa2 | inactive: -0.0932
18 | CCACUCAUCAGUGACAAAATT against Olfr820 | inactive: -1.06
19 | CGUGGUCUCGGACACUUUCTT against Hcn2 | inactive: 0.262
20 | GGCCCAGCAUGCAAGUUAUTT against Sh2d2a | inactive: 0.295
21 | GCAAGUGUACUAUUCCAUCTT against Myh6 | inactive: 0.769
22 | GGCUAAGUAGACAGGUUUUTT against Olfr1288 | inactive: -0.132
23 | GCUCAUUCCAGGUAUCUGATT against Fcna | inactive: -0.049
24 | GGAUGUUGUCCAUACUGUATT against Zfp36l2 | inactive: 1.02
25 | GGAUGUAAGGCCUUUUUUATT against Esr2 | inactive: -0.531
26 | GCGGCAUUCGUCCAAAUUGTT against Tpt1h | inactive: -0.38
27 | GGAACAUAAGAUCUGCCUGTT against Crybb1 | inactive: -1.7

Row | Sequence | z-score
28 | GGAACAUGGCAACUCCGUGTT against Hcn1 | inactive: 0.411
29 | GGUAAAUAGCGAUAAGGUATT against Tgm1 | inactive: 1.16
30 | GGAACUCACCCUCAGCUUGTT against 6720456H20Rik | inactive: 0.63
31 | GGACUCUUUUUGUUCUUUGTT against Vgll2 | inactive: -0.293
32 | GGCUGUUGUGCAGACUACATT against 2700094F01Rik | inactive: -2.9
33 | GGUUAGAAGAAGAAACCCGTT against Prph1 | inactive: -0.0726
34 | GGCUGUUCGAGCCCUGAAATT against Naca | inactive: -2.29
35 | GCGCAAGUACCUCAAGAGUTT against Grem2 | inactive: 0.717
36 | GGAUGCUUGUGCAAAGAUGTT against C030032C09Rik | inactive: -1.93
37 | GGUCCAUGGAAUAGUACGGTT against Gmds | inactive: 2.19
38 | GGGUUGUACUGAAAUAGUGTT against Il1rap | inactive: 1.92
39 | CCUACAGGCGGAGAAACAUTT against Serhl | inactive: -1.96
40 | GGUUGACGAAUAAAUCAACTT against 4921525H12 | inactive: 0.051
41 | GGAUGAACAAAAUAAGACUTT against C630025C03 | inactive: -1.07
42 | GGGUUUGAAAAUUGUACAATT against Sypl | inactive: 1.59
43 | GGUAACAUCAACACCAAACTT against Nit1 | inactive: -0.473
44 | CCGAGAGCCAAGAUGCCAATT against Armc7 | inactive: -0.517
45 | GGACGAACAAUAGAAGAACTT against Agtpbp1 | inactive: -0.12
46 | GGAACAAAGAAGUCAAAGATT against Olfr16 | inactive: 0.219
47 | ACCUGGGCCUAUGCCUUACTT against Ascl2 | inactive: -1.78
48 | GGGAAGUUUCGCUACCUUGTT against Trik | inactive: -0.388
49 | GGCAUUUUAUAAGUUUGAGTT against Mitf | inactive: 1.19
50 | GCCUGGAUUUAUCGAAUUATT against 2610524H06Rik | inactive: 0.937
51 | GGCUGGUUUAUUUGUGGACTT against Tmem2 | inactive: -0.0273
52 | CCCUUAUAUUUCUAACAGUTT against Chchd2 | inactive: 1.22
53 | GCCUUGGUACACUAAACUCTT against Rhcg | inactive: -0.685
54 | GGCACAGUAUGUACUAACUTT against Gpld1 | inactive: -0.58

Some values from the list:
GGGUUGUACUGAAAUAGUGTT against Il1rap – z-score: inactive: 1.92
GGCUGGUUUAUUUGUGGACTT against Tmem2 – z-score: inactive: -0.0273
GGACGAACAAUAGAAGAACTT against Agtpbp1 – z-score: inactive: -0.12
GGUAAAUAGCGAUAAGGUATT against Tgm1 – z-score: inactive: 1.16

Remaining list, next part:

Row | Sequence | z-score
55 | GCUACAGUACCCAUACUAGTT against 8030463A06Rik | inactive: -2.02
56 | CGCUUACAAGCUAACCUCATT against Mrgprd | inactive: -0.608
57 | GGUGAAGGCCAUCAAUUUCTT against Gabbr1 | inactive: -1.82
58 | GGUCAUAAGUUUCUCAUCUTT against 2610020H15Rik | inactive: 1.83
59 | GGUGAUCAAUCCUCUAAUATT against Cri2 | inactive: 3.03
60 | GCGAUUAAGUCUGAAUUGUTT against C1qr1 | inactive: 1.68
61 | GGUGCACUCUGUCAGUUCATT against Col27a1 | inactive: -1.07
62 | GGAUCCGAACAUCCUCAGGTT against Hr | inactive: 0.609
63 | GCGGAAACUCUCGAAAGUGTT against Dhx34 | inactive: 0.369
64 | GGAGAAGAGUUUCCUCUGATT against Rtn4ip1 | inactive: -1.6
65 | GGUAUGGCAUUUCAAACCUTT against 5230400G24Rik | inactive: -0.427
66 | GAAUGAAAGGUACGAAAAATT against Ang4 | inactive: -0.00494
67 | GGUUCUGGAAGAAGAAAAGTT against AF322649 | inactive: -0.855
68 | GCUGCUUGUCCUAAGUUGATT against Aqp8 | inactive: 0.391
69 | GGAACUGCUCAAGAUCAAGTT against Plagl2 | inactive: -1.34
70 | GGAUCAUUGAUGUCAUCUATT against Abcb10 | inactive: -2.66
71 | CGGUCUUUAUACACAUAUATT against Wnt7a | inactive: -1.06
72 | GCUACUUCGGGAAUUUUACTT against ttc21a | inactive: 1.05
73 | GGCUUCCAGUACCAUUAGGTT against Ucp1 | inactive: -0.973
74 | GGUUGGCAAGUUCCUGUAUTT against Cdk3 | inactive: 1.64
75 | GGAAUCAAUAAGAAUGACGTT against Tln2 | inactive: 0.731
76 | GCCCUUGCACUAUUUUUCCTT against Olfr1218 | inactive: 0.236
77 | GGCUGUAUGUAGUGAAUAUTT against Nck2 | inactive: -0.875
78 | GGCUGGAUCCUCAUUGACCTT against Kctd10 | inactive: -0.207
79 | GGAUUGCUGUAAAAUACAATT against D11Ertd497e | inactive: -0.945
80 | GGAACAAGGUCCUAAACCATT against Gtf2f1 | inactive: -0.0997
81 | GGAACAGAAAGCAGUGUACTT against Dnajc9 | inactive: -1.08

Row | Sequence | z-score
82 | GGGCUGGAUUUUCUCCAGATT against Crsp7 | inactive: -0.334
83 | GUUGGCAUAUUUUAUGGCATT against Olfr1033 | inactive: 0.175
84 | GCACAGCUACCAUUCACAATT against 4432416J03Rik | inactive: 1.2
85 | GGUGUUAAGACUAAAACUUTT against Plxdc2 | inactive: 0.0452
86 | GCUUACCUAGUGCUCUUAATT against Kctd15 | inactive: -1.3
87 | GAUACAGAUCGCCAAGAGCTT against H2-D4 | inactive: -0.422
88 | GCUAGACAUCGGUUCUUAUTT against Eomes | inactive: -0.909
89 | GCUGGAUAUGGUCAAGGCGTT against Ndufa5 | inactive: 0.854
90 | GCUUACCUUGUUCUUAAAGTT against AI325464 | inactive: 0.388
91 | GGAUAUUCUUCCUCUCUUUTT against MGC91106 | inactive: -1.43
92 | GCUUCUGACAUAUUGUGCATT against Phxr2 | inactive: 0.651
93 | GGCCUUCAUGGAUUAUACCTT against Serpinb9 | inactive: 0.161
94 | GCUCUCGGUUCCACUUUCATT against 4932438H23Rik | inactive: -2.27
95 | CCUGCUUAAAGAUUACCCATT against Flt3l | inactive: -2.68
96 | GGGAAGAGCAUGUUUGCUGTT against Surf4 | inactive: 0.587
97 | CCUAUGUGUACUUCAUCCUTT against Elovl1 | inactive: 1.45
98 | CCAAACCAGUGGAGUCCAUTT against BC061928 | inactive: -0.00878
99 | CCAAUUAUUAUCCAAGGGCTT against Slc16a6 | inactive: 0.355
100 | GGCCUAUGCGGAGGAGUUATT against 2700067E09Rik | inactive: 1.78
101 | CCAGAGAGGUUUAUAAGUCTT against 2700038I16Rik | inactive: -0.467
102 | GGAAUGCCUGCAUAAGUUUTT against Th1l | inactive: -1.71
103 | GGGAAGACAAGAACAACUUTT against Pitrm1 | inactive: -0.362
104 | GGUGGUCACCAAGAAGUUUTT against Prps2 | inactive: 0.754
105 | GGAUCAGACACCUGUUUUATT against Pkhd1 | inactive: 1.16

Quoted from above, entries 43–44
Row | Sequence | z-score
43 | GGUAACAUCAACACCAAACTT against Nit1 | inactive: -0.473
44 | CCGAGAGCCAAGAUGCCAATT against Armc7 | inactive: -0.517
